Patent publication US8507464B2, “Phosphoramidate alkylator prodrugs” (Threshold Pharmaceuticals, Inc., priority 2005, dated 2013)
At least one structure is not confirmed: it was looked up by name or label, or the drawing left a doubt.

Columns and labels:
[1] = type: physicochemical; details: scan rate 100 mV/sec, glassy carbon, Ag/AgCl reference
NCI-H460 cells = test: Antiproliferation assay (Alamar Blue), anoxia vs air; details: read-out: IC50 H460 Air, 2 h exposure

| Compound | Reduction Potentials, 100 mV/sec [1] | IC50 (NCI-H460 cells) |
| --- | --- | --- |
| Cc1csc(C(C)OP(=O)(NCCBr)NCCBr)c1[N+](=O)[O-] (centres unmarked) [Compound 103] | −638, −769, −875 mV | – |
| CC(OP(=O)(NCCBr)NCCBr)c1ncc([N+](=O)[O-])n1C (centres unmarked) [Compound 85] | – | 100 µM |
